This is an account of results in publication PMC2064872.

Sequences of proteins named here, by UniProt entry; tags and fusion partners are left off.
UniProt Q13049: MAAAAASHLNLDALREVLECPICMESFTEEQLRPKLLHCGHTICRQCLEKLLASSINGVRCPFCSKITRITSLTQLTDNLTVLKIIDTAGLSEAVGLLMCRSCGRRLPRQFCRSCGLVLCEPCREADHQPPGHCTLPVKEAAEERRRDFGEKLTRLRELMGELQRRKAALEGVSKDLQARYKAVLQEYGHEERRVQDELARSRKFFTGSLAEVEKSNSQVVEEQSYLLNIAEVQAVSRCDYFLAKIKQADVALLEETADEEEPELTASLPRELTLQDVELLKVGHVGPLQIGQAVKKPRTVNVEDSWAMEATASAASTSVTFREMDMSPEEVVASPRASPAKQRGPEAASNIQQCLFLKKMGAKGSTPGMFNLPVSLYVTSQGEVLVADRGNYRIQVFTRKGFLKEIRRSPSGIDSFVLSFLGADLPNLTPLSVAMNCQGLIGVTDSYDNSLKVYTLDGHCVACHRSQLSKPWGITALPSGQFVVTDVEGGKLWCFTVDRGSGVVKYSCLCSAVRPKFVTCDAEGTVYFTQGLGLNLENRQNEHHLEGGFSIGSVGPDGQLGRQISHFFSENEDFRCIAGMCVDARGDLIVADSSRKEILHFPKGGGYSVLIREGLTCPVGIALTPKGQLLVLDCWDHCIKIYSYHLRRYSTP
UniProt P49792: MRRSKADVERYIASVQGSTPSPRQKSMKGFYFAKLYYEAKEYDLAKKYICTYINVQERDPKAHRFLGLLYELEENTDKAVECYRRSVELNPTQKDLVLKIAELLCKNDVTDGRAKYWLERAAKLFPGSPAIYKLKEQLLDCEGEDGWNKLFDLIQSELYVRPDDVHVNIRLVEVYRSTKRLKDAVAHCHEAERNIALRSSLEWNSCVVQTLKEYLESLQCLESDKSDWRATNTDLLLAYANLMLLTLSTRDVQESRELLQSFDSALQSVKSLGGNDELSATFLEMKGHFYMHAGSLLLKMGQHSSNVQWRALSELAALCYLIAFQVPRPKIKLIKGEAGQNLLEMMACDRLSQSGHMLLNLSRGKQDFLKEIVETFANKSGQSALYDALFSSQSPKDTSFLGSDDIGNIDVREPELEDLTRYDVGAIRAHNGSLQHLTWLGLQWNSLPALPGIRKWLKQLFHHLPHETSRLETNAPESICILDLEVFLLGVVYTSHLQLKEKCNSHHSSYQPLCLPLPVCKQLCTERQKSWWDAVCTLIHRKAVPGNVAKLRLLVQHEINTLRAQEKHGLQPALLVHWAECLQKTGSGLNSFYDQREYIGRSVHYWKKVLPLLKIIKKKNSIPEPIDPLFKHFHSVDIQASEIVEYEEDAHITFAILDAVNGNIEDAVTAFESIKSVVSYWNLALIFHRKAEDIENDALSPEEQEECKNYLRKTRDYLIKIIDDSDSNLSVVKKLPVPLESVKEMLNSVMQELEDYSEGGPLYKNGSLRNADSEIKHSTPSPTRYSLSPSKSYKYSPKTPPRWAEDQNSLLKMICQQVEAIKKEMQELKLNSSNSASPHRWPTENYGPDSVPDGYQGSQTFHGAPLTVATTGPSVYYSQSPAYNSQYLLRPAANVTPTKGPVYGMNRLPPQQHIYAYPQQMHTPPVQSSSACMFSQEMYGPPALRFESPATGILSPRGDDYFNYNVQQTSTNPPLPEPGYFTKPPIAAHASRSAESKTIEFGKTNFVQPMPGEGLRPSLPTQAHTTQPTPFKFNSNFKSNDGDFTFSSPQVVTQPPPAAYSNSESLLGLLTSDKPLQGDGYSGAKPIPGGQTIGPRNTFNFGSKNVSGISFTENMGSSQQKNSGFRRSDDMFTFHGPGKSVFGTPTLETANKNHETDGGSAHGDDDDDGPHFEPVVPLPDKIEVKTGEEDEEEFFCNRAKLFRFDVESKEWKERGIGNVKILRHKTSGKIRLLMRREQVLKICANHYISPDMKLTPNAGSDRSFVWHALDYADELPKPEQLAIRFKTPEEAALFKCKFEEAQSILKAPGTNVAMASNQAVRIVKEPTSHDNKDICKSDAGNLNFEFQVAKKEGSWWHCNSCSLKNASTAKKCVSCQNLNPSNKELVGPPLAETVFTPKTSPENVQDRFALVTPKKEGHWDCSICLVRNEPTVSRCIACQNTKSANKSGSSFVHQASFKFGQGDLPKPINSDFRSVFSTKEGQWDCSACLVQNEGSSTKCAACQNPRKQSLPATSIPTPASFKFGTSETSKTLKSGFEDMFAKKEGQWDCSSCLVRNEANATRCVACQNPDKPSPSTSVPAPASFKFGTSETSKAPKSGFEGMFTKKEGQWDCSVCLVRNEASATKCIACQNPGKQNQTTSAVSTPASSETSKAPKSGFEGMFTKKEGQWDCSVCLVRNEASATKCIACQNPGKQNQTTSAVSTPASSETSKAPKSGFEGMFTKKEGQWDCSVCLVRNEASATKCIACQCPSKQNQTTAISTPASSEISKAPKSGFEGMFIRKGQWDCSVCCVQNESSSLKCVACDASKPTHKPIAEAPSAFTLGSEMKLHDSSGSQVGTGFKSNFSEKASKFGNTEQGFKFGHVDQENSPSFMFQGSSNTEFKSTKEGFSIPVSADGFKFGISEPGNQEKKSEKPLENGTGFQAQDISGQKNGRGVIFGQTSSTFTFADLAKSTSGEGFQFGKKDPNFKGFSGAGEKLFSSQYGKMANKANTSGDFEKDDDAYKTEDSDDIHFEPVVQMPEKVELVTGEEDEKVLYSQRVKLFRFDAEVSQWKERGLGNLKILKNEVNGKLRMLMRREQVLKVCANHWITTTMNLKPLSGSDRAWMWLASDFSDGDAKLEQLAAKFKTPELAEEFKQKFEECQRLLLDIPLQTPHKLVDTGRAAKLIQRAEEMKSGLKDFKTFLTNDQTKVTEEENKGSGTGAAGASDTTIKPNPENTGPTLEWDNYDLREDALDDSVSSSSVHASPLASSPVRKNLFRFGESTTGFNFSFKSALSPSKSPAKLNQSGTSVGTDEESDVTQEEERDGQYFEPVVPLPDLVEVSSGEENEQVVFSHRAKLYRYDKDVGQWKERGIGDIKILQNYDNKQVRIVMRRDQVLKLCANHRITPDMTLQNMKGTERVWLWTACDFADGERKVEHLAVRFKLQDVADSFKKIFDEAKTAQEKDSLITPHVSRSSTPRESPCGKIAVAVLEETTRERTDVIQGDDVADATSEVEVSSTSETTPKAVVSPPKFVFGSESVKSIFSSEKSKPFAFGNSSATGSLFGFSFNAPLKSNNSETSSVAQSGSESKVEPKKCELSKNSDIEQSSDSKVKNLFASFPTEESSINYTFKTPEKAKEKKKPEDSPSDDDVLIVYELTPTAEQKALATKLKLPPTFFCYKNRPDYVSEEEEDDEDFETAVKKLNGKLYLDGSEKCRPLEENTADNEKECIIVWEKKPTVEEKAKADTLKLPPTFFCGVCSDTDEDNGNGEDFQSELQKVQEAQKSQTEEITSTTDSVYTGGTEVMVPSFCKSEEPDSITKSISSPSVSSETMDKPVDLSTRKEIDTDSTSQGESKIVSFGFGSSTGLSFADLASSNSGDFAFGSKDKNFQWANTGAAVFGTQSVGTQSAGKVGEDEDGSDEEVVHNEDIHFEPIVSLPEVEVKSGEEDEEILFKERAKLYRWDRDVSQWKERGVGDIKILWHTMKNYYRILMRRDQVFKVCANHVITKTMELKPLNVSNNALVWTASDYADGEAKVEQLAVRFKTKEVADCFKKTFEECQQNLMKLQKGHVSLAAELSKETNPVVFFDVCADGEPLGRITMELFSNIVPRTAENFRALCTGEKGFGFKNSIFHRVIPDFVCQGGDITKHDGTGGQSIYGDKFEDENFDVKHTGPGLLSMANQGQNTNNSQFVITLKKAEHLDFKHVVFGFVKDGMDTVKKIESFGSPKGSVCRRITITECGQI

This assay addresses Trim32, endogenous in HeLa cells (human (endogenous in HeLa)) (UniProt Q13049). In words: co-IP; endogenous proteins of MG132-treated HeLa cells; anti-Trim32 (or control IgG) as the IP antibody; immunoblot. For orientation: Immunoblotting shows a protein as a band on a membrane.

No constants are given. Whether binding was seen depends on the method and setting. Binding seen in cells or lysates may run through a third protein.

With “RanBP2, endogenous in HeLa cells (from UniProt P49792 1-3224)”, the binding entry is “no binding”.
